No constants are given. Whether binding was seen depends on the method and setting. In cells and extracts the contact can be indirect. Some entries that bind do so weakly or less than the wild type.
Biological target: dopamine transporter (DAT) (rat (endogenous in striatal synaptosomes)) (UniProt P23977)
Assay: co-IP; Dynabeads with D2 receptor antibody (AB5084P) or DAT antibody (SC1433), 12 h at 4 °C; striatal synaptosomal fractions (200 μg protein in 100 μL RIPA buffer), 12 h at 4 °C; western blot with DAT or D2 receptor antibody; rats given saline, single METH (6 mg/kg i.v., killed at 30 min) or binge METH (4 × 10 mg/kg i.p., killed at 1 h)

Sequences of proteins named here, by UniProt entry; tags and fusion partners are left off. A change or cut given only in a name is not applied to a line headed by its entry. A line that says so, or that is headed by a name, gives the form on record, which may keep a tag or linker.
UniProt P23977: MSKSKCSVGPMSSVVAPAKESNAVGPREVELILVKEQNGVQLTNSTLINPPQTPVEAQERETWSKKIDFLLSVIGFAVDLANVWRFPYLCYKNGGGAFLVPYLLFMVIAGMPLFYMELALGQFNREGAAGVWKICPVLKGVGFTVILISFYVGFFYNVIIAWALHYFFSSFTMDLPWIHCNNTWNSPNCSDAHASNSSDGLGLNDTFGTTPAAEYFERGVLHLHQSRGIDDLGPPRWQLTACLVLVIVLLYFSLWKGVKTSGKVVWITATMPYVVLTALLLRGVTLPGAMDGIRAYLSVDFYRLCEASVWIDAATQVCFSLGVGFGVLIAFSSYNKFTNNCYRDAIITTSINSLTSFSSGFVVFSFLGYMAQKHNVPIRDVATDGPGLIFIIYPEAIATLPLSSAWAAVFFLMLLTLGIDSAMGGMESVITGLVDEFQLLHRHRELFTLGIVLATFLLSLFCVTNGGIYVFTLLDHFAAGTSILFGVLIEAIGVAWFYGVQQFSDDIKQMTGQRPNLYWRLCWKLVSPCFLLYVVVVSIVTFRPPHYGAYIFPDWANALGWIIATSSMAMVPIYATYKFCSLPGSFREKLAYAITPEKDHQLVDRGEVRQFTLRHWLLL
dopamine D2short (D2S) receptor, presynaptic D2 autoreceptor (P61169-2, form named): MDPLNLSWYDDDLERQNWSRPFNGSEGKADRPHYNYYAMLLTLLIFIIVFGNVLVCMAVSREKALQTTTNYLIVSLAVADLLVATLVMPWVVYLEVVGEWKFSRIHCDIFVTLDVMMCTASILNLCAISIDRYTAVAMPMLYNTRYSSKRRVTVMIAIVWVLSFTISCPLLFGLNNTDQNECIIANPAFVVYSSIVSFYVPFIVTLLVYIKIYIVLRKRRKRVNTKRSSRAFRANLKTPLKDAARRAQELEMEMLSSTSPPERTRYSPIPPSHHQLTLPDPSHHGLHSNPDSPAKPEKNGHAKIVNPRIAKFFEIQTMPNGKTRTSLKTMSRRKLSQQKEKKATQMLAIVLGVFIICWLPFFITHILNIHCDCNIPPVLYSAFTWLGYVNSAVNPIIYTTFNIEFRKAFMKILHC

## dopamine D2short (D2S) receptor, presynaptic D2 autoreceptor (from UniProt P61169-2 1-415)
  binding: binds

— paper PMC4013602
